Test results: the supplement of paper PMC6411743
± gives the standard deviation of the averaged measurements. The entries are a selection whose mix differs from that of the whole data set.

Chains of the proteins cited; added tags and fusions are not shown. Lines headed by an entry give the natural chain unless they say otherwise; changes in a name come on top.
UniProt Q13158: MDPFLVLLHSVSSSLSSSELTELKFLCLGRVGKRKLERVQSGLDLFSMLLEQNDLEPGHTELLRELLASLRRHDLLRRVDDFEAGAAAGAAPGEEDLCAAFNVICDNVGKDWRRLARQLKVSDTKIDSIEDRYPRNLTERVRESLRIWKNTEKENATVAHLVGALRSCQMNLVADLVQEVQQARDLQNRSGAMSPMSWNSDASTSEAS
UniProt Q12959, whole entry, looked up: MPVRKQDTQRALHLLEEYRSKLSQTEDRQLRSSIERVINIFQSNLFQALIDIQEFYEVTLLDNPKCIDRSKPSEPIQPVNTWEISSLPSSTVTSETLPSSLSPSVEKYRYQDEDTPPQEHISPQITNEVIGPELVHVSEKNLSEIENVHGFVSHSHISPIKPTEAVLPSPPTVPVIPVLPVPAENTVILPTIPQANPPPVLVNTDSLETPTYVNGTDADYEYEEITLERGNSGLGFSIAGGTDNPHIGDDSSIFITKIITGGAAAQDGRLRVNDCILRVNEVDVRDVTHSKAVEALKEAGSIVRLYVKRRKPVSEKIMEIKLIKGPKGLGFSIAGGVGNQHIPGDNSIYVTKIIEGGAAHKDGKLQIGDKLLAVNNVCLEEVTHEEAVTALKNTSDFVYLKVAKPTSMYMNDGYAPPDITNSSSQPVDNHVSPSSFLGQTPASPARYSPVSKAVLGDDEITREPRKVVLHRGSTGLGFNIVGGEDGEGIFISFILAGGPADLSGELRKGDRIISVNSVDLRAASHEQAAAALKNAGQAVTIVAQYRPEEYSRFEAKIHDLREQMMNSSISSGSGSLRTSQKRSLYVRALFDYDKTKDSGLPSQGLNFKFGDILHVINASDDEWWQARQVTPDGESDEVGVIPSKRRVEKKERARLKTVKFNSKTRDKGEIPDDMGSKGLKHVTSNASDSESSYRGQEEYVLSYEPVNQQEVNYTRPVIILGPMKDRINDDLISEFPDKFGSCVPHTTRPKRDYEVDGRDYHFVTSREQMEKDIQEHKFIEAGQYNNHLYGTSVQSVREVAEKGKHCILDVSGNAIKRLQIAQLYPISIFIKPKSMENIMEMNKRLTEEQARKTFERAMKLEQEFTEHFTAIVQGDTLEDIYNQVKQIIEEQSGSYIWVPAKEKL
UniProt Q14108: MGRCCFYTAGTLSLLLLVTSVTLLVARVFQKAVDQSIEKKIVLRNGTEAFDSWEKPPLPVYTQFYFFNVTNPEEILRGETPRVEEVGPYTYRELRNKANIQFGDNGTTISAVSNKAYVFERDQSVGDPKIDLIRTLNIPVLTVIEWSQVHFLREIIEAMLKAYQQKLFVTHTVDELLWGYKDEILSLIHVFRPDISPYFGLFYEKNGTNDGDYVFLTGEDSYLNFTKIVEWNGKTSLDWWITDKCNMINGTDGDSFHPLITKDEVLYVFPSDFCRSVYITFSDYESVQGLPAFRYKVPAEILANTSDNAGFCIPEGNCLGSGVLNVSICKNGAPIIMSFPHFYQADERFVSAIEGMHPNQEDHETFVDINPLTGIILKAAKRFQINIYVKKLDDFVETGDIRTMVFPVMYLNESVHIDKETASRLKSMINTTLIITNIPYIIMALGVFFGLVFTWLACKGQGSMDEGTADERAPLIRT
UniProt Q15024, whole entry: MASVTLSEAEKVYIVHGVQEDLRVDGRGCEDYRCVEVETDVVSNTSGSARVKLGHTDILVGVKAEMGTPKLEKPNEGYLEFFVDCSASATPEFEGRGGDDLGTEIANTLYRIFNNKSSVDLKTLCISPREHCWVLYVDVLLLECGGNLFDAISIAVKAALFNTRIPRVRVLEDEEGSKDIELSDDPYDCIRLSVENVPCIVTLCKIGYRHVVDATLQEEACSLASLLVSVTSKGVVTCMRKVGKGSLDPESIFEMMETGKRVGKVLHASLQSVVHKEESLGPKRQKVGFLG
UniProt Q13619, whole entry: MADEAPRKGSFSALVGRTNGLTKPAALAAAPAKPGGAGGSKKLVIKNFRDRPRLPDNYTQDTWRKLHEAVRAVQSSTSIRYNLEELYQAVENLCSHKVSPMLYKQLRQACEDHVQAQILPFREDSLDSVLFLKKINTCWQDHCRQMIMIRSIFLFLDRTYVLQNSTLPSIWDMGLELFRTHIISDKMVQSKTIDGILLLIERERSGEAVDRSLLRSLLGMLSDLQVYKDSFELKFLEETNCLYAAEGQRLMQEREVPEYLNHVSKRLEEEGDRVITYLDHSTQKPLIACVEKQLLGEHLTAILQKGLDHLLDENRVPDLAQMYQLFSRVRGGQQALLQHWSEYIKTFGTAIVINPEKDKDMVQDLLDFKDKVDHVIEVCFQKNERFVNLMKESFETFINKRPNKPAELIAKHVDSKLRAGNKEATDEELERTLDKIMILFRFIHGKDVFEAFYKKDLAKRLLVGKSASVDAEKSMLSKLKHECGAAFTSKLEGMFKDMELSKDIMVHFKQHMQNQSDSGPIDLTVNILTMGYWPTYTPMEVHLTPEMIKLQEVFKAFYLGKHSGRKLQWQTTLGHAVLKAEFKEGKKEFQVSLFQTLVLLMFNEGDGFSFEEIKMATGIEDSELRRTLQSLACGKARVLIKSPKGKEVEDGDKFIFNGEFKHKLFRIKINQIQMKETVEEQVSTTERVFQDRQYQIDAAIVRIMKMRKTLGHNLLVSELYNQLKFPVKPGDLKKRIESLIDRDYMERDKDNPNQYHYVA
UniProt Q13445: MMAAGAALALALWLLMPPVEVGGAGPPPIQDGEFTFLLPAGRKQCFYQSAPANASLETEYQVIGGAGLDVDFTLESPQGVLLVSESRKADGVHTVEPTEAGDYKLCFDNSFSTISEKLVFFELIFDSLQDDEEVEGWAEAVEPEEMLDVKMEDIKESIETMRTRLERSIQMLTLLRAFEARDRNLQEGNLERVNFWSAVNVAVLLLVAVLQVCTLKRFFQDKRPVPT
UniProt Q15075: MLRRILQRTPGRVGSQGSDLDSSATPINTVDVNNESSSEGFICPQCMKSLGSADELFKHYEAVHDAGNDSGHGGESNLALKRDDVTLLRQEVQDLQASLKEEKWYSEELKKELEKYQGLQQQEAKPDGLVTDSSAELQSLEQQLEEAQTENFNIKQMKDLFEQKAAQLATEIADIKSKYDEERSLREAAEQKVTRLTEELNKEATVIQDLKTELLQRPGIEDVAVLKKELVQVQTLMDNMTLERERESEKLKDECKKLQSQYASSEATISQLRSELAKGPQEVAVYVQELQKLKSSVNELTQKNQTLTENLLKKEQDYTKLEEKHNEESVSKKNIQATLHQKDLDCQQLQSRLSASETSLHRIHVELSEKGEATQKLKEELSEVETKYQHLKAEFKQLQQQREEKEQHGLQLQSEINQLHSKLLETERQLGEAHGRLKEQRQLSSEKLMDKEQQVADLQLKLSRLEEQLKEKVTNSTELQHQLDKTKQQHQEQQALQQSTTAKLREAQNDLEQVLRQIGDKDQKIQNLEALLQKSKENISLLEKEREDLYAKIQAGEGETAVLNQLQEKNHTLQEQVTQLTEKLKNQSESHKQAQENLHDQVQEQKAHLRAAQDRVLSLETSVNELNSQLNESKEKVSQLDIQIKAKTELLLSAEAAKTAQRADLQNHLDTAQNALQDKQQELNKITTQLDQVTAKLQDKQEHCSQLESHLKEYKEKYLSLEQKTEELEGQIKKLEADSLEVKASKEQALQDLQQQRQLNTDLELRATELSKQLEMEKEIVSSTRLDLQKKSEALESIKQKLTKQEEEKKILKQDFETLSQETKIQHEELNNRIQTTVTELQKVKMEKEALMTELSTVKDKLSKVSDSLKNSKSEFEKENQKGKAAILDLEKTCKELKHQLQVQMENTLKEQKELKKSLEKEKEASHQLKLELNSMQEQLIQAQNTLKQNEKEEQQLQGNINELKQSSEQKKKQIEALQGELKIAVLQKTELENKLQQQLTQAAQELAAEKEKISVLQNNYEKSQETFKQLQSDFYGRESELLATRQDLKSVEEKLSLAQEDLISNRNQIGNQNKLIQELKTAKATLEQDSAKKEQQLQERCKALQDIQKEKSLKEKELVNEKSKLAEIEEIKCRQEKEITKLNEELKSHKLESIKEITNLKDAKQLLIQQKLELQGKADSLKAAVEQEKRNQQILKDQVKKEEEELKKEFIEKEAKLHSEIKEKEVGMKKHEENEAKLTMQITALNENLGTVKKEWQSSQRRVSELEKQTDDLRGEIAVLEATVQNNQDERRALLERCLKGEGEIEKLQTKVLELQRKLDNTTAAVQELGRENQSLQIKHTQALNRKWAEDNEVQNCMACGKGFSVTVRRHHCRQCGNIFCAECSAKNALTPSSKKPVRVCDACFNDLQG
UniProt Q15118, whole entry, looked up: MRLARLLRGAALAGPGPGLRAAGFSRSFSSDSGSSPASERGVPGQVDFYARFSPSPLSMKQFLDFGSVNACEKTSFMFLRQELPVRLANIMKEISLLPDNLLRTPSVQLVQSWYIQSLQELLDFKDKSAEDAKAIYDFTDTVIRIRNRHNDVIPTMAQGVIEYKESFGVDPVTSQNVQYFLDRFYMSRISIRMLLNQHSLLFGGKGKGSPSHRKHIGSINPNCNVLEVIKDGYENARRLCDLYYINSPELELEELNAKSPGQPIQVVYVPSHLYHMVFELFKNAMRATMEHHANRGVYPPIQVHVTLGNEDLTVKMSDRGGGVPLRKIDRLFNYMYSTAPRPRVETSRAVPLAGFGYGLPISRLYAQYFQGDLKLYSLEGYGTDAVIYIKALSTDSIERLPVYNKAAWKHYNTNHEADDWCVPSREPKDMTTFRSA
UniProt Q13907: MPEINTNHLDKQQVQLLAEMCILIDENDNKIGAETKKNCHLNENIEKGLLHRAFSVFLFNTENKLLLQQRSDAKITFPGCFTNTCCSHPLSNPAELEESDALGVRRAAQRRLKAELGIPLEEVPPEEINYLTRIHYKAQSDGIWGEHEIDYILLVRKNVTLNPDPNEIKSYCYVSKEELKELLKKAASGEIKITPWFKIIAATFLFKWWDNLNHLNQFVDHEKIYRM
UniProt Q08945, whole entry: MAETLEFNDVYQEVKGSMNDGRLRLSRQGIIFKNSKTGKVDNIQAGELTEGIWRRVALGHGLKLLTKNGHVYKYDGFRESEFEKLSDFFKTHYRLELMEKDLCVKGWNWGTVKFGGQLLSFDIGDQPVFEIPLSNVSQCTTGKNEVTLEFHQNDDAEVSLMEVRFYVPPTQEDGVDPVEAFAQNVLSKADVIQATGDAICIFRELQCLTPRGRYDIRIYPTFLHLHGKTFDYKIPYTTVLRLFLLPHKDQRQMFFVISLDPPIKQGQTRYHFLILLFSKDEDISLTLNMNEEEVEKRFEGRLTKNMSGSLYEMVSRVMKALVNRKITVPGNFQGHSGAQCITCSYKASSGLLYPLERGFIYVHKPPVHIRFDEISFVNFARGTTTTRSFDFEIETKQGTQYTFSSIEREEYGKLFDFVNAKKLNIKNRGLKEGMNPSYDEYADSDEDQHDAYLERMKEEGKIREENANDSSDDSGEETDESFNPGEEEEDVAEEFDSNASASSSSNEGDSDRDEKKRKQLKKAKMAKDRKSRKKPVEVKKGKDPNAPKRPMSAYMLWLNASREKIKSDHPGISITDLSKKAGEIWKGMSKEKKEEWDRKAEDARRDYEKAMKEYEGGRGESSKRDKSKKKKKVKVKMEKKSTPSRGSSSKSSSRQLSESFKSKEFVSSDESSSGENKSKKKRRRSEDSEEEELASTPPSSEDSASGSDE
UniProt Q13177, whole entry: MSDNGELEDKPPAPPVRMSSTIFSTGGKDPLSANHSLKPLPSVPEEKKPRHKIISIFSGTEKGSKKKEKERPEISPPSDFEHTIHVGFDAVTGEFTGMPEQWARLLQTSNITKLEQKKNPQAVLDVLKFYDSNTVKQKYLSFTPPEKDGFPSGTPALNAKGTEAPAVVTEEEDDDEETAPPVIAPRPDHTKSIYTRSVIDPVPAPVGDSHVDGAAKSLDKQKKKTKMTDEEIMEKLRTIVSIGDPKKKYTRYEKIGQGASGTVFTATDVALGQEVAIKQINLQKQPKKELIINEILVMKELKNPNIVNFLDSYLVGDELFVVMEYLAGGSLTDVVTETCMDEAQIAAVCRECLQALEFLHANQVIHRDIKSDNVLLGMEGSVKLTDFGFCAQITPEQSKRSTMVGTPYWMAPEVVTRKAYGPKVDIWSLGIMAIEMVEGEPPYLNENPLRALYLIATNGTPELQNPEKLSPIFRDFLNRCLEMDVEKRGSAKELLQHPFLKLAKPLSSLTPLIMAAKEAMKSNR
UniProt Q13148, whole entry: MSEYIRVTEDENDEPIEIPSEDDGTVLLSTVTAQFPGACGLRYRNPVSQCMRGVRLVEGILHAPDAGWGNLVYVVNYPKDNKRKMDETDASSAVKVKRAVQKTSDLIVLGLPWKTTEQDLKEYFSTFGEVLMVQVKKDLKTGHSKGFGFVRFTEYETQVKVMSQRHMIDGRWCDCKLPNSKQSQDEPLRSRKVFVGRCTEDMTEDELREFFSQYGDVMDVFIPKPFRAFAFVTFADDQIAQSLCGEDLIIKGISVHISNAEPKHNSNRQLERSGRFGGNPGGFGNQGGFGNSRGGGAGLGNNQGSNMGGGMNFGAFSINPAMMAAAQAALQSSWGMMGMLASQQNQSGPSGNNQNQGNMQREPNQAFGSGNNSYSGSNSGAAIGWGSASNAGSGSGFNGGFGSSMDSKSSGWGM

Compound: Nc1ncnc2c1ncn2[C@@H]1O[C@H](COP(=O)(O)OP(=O)(O)NP(=O)(O)O)[C@@H](O)[C@H]1O [adenylyl imidodiphosphate]
Test: NP40-soluble protein abundance relative to vehicle (solubility fold change) (ratio); higher = more soluble protein in presence of AMP-PNP
How it was run: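 Jurkat crude lysate prepared with a Dounce homogeniser was treated at eight concentrations spanning 0.1 to 10 mM, 10 min at room temperature then 3 min at 37 °C. Solubilisation with 0.8% NP40 and benzonase and ultracentrifugation preceded TMT labelling of the supernatant for LC-MS/MS. Fold change against the detergent-processed vehicle was determined per replicate from vsn-normalised intensities, across three independent experiments.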

Target	NP40-soluble protein abundance (concentration: 1mM)	NP40-soluble protein abundance (concentration: 2mM)	NP40-soluble protein abundance (concentration: 4mM)	NP40-soluble protein abundance (concentration: 6mM)	NP40-soluble protein abundance (concentration: 8mM)	NP40-soluble protein abundance (concentration: 10mM)
BMS1 (UniProt Q14692)	1.04 ± 0.024	1.1 ± 0.055	1.06 ± 0.024	1.08 ± 0.022	1.04 ± 0.019	1.06 ± 0.035
GALNT1 (UniProt Q10472)	0.972 ± 0.035	0.949 ± 0.061	0.961 ± 0.02	0.952 ± 0.011	0.958 ± 0.035	0.9308 ± 0.007
UniProt Q14669-2|Q14669-3	1.04 ± 0.03	1.07 ± 0.031	1.11 ± 0.041	1.12 ± 0.062	1.12 ± 0.031	1.18 ± 0.045
PSME4 (UniProt Q14997)	0.9678 ± 0.0088	0.905 ± 0.072	0.968 ± 0.045	0.884 ± 0.075	0.925 ± 0.11	0.884 ± 0.11
UniProt Q13247 and related entries	0.993 ± 0.04	1.01 ± 0.031	0.928 ± 0.053	0.942 ± 0.073	0.901 ± 0.1	0.908 ± 0.12
RAB33A (UniProt Q14088)	1.02 ± 0.021	0.976 ± 0.013	0.991 ± 0.025	0.974 ± 0.033	1 ± 0.042	0.988 ± 0.054
FKBP5 (UniProt Q13451)	1.004 ± 0.0095	0.983 ± 0.043	0.974 ± 0.019	0.958 ± 0.022	0.937 ± 0.017	0.934 ± 0.018
SNW1 (UniProt Q13573)	1.05 ± 0.026	1.11 ± 0.051	1.06 ± 0.022	1.06 ± 0.051	1.02 ± 0.028	1.08 ± 0.042
UniProt Q13618 and related entries	0.98 ± 0.022	0.91 ± 0.07	0.965 ± 0.01	0.958 ± 0.025	0.985 ± 0.018	0.934 ± 0.019
UniProt Q13303 and related entries	0.956 ± 0.037	0.894 ± 0.051	0.969 ± 0.062	1.03 ± 0.089	1.06 ± 0.058	1.02 ± 0.084
FADD (UniProt Q13158)	1.044 ± 0.0098	1.01 ± 0.018	1.04 ± 0.036	1.02 ± 0.075	1.08 ± 0.021	1.06 ± 0.048
UniProt Q14746 and related entries	0.962 ± 0.031	0.982 ± 0.042	0.979 ± 0.024	0.925 ± 0.04	0.918 ± 0.041	0.931 ± 0.059
UniProt Q14C86-6|Q14C86 and related entries	0.987 ± 0.032	0.988 ± 0.048	0.986 ± 0.042	0.986 ± 0.017	0.969 ± 0.029	0.988 ± 0.038
UniProt Q13416	1.01 ± 0.039	1.07 ± 0.021	1.06 ± 0.033	1 ± 0.036	0.982 ± 0.036	1.04 ± 0.042
UniProt Q13740 and related entries	1.02 ± 0.03	1.08 ± 0.07	1.01 ± 0.048	1.02 ± 0.013	1.01 ± 0.017	1 ± 0.03
UniProt Q12959-3|A0A0C4DFT3|Q12959-4	0.991 ± 0.05	0.992 ± 0.029	0.995 ± 0.014	0.961 ± 0.016	0.948 ± 0.021	0.986 ± 0.033
PMPCA (UniProt Q10713)	0.985 ± 0.018	0.892 ± 0.11	0.971 ± 0.028	0.938 ± 0.018	0.98 ± 0.022	0.905 ± 0.019
SCARB2 (UniProt Q14108)	0.991 ± 0.058	0.974 ± 0.056	0.987 ± 0.059	1.04 ± 0.11	1.03 ± 0.091	1.01 ± 0.11
EXOSC7 (UniProt Q15024)	1.03 ± 0.019	0.982 ± 0.09	1.11 ± 0.041	1.08 ± 0.069	1.16 ± 0.096	1.11 ± 0.12
EIF2B5 (UniProt Q13144)	0.963 ± 0.048	0.969 ± 0.038	1.01 ± 0.053	0.997 ± 0.036	1.01 ± 0.031	1.01 ± 0.053

Target	NP40-soluble protein abundance (concentration: 1mM)	NP40-soluble protein abundance (concentration: 2mM)	NP40-soluble protein abundance (concentration: 4mM)	NP40-soluble protein abundance (concentration: 6mM)	NP40-soluble protein abundance (concentration: 8mM)	NP40-soluble protein abundance (concentration: 10mM)
UniProt Q13105 and related entries	1.01 ± 0.06	1.011 ± 0.0042	1.03 ± 0.028	1.04 ± 0.057	1.04 ± 0.051	1.07 ± 0.072
CDC20 (UniProt Q12834)	1.02 ± 0.025	1.007 ± 0.008	0.985 ± 0.012	1.02 ± 0.018	1.021 ± 0.0069	1.03 ± 0.026
CUL4A (UniProt Q13619)	0.963 ± 0.022	0.938 ± 0.052	0.995 ± 0.037	1.02 ± 0.047	1.04 ± 0.027	1.03 ± 0.047
UniProt Q09028 and related entries	1.02 ± 0.031	1.03 ± 0.05	1.03 ± 0.055	0.9856 ± 0.0053	1.01 ± 0.054	0.978 ± 0.011
MAD2L1 (UniProt Q13257)	0.956 ± 0.068	0.886 ± 0.053	0.953 ± 0.04	0.999 ± 0.096	1.05 ± 0.059	0.996 ± 0.046
UniProt Q12797 and related entries	0.974 ± 0.029	1 ± 0.081	1 ± 0.031	1.04 ± 0.058	1.03 ± 0.011	1.07 ± 0.044
UniProt Q14596 and related entries	0.981 ± 0.029	1 ± 0.014	0.993 ± 0.017	0.987 ± 0.018	0.988 ± 0.016	0.967 ± 0.01
TMED1 (UniProt Q13445)	1 ± 0.069	0.992 ± 0.031	0.991 ± 0.043	0.949 ± 0.028	0.968 ± 0.024	0.955 ± 0.024
ITPR3 (UniProt Q14573)	0.98 ± 0.044	0.949 ± 0.053	0.964 ± 0.067	0.96 ± 0.097	0.98 ± 0.071	0.976 ± 0.12
SNTB2 (UniProt Q13425)	1.001 ± 0.0065	0.975 ± 0.022	1.04 ± 0.023	0.991 ± 0.044	1.03 ± 0.022	1.01 ± 0.018
PPP2R5D (UniProt Q14738)	1.01 ± 0.024	1.04 ± 0.052	0.997 ± 0.026	0.975 ± 0.01	0.945 ± 0.015	0.971 ± 0.016
UniProt Q15006	0.984 ± 0.018	0.9532 ± 0.0062	0.975 ± 0.044	0.989 ± 0.049	1.02 ± 0.028	1.02 ± 0.013
UniProt Q14247 and related entries	1.097 ± 0.0082	1.14 ± 0.061	1.16 ± 0.037	1.14 ± 0.039	1.14 ± 0.038	1.18 ± 0.055
UniProt Q13838 and related entries	0.857 ± 0.07	0.784 ± 0.11	0.865 ± 0.071	0.882 ± 0.08	0.964 ± 0.053	0.934 ± 0.032
UniProt Q12873 and related entries	1 ± 0.048	1.05 ± 0.076	1.06 ± 0.083	1.14 ± 0.032	1.16 ± 0.061	1.21 ± 0.072
UniProt Q12802 and related entries	1.02 ± 0.015	1.04 ± 0.072	1.04 ± 0.02	0.992 ± 0.039	0.976 ± 0.046	1.03 ± 0.024
UniProt Q15036 and related entries	1.03 ± 0.02	0.9855 ± 0.0063	1.02 ± 0.029	1 ± 0.07	1.01 ± 0.031	1.03 ± 0.048
EEA1 (UniProt Q15075)	1.02 ± 0.022	1.08 ± 0.078	1.02 ± 0.029	0.992 ± 0.014	0.958 ± 0.034	0.979 ± 0.043
TUBB3 (UniProt Q13509)	1.06 ± 0.015	1.03 ± 0.0055	1.0269 ± 0.00018	0.962 ± 0.021	0.987 ± 0.03	1.02 ± 0.018
MCM6 (UniProt Q14566)	0.901 ± 0.017	0.813 ± 0.091	0.874 ± 0.043	0.883 ± 0.025	0.903 ± 0.037	0.833 ± 0.058

An excerpt of these results, with each value named.
FKBP5 (UniProt Q13451)
  NP40-soluble protein abundance (concentration: 1mM): 1.004 ± 0.0095; NP40-soluble protein abundance (concentration: 2mM): 0.983 ± 0.043; NP40-soluble protein abundance (concentration: 4mM): 0.974 ± 0.019; NP40-soluble protein abundance (concentration: 6mM): 0.958 ± 0.022; NP40-soluble protein abundance (concentration: 8mM): 0.937 ± 0.017; NP40-soluble protein abundance (concentration: 10mM): 0.934 ± 0.018
CUL4A (UniProt Q13619)
  NP40-soluble protein abundance (concentration: 1mM): 0.963 ± 0.022; NP40-soluble protein abundance (concentration: 2mM): 0.938 ± 0.052; NP40-soluble protein abundance (concentration: 4mM): 0.995 ± 0.037; NP40-soluble protein abundance (concentration: 6mM): 1.02 ± 0.047; NP40-soluble protein abundance (concentration: 8mM): 1.04 ± 0.027; NP40-soluble protein abundance (concentration: 10mM): 1.03 ± 0.047
SNTB2 (UniProt Q13425)
  NP40-soluble protein abundance (concentration: 1mM): 1.001 ± 0.0065; NP40-soluble protein abundance (concentration: 2mM): 0.975 ± 0.022; NP40-soluble protein abundance (concentration: 4mM): 1.04 ± 0.023; NP40-soluble protein abundance (concentration: 6mM): 0.991 ± 0.044; NP40-soluble protein abundance (concentration: 8mM): 1.03 ± 0.022; NP40-soluble protein abundance (concentration: 10mM): 1.01 ± 0.018
UniProt Q15006
  NP40-soluble protein abundance (concentration: 1mM): 0.984 ± 0.018; NP40-soluble protein abundance (concentration: 2mM): 0.9532 ± 0.0062; NP40-soluble protein abundance (concentration: 4mM): 0.975 ± 0.044; NP40-soluble protein abundance (concentration: 6mM): 0.989 ± 0.049; NP40-soluble protein abundance (concentration: 8mM): 1.02 ± 0.028; NP40-soluble protein abundance (concentration: 10mM): 1.02 ± 0.013

(listing goes on)

Target	NP40-soluble protein abundance (concentration: 1mM)	NP40-soluble protein abundance (concentration: 2mM)	NP40-soluble protein abundance (concentration: 4mM)	NP40-soluble protein abundance (concentration: 6mM)	NP40-soluble protein abundance (concentration: 8mM)	NP40-soluble protein abundance (concentration: 10mM)
LAPTM5 (UniProt Q13571)	1 ± 0.016	1.03 ± 0.023	0.961 ± 0.027	0.977 ± 0.012	0.969 ± 0.03	0.984 ± 0.038
EP300 (UniProt Q09472)	1.01 ± 0.036	1.04 ± 0.017	1.04 ± 0.027	1 ± 0.022	1 ± 0.02	1.03 ± 0.014
UniProt Q15118 and related entries	1.004 ± 0.002	1.01 ± 0.028	1.02 ± 0.0094	1 ± 0.021	1.02 ± 0.016	0.994 ± 0.013
UniProt Q14318-2|Q14318	1.01 ± 0.0018	1.017 ± 0.0057	1.01 ± 0.025	1.02 ± 0.031	1.02 ± 0.022	1.06 ± 0.021
PDCD11 (UniProt Q14690)	0.9836 ± 0.0023	1.07 ± 0.017	1.08 ± 0.12	1.08 ± 0.044	1.19 ± 0.081	1.22 ± 0.12
MTM1 (UniProt Q13496)	0.955 ± 0.016	0.932 ± 0.058	0.994 ± 0.013	0.971 ± 0.013	0.9902 ± 0.0058	0.967 ± 0.013
IDI1 (UniProt Q13907)	0.997 ± 0.026	0.981 ± 0.039	0.954 ± 0.04	1.01 ± 0.088	1 ± 0.051	0.98 ± 0.071
UniProt Q13501 and related entries	1.04 ± 0.047	1.05 ± 0.037	1.01 ± 0.042	1.02 ± 0.045	0.966 ± 0.048	1.04 ± 0.055
SLC39A6 (UniProt Q13433)	1.04 ± 0.04	1.07 ± 0.082	1.02 ± 0.07	1.04 ± 0.048	1.03 ± 0.071	1.02 ± 0.043
SSRP1 (UniProt Q08945)	1.05 ± 0.053	1.07 ± 0.03	1.13 ± 0.045	1.35 ± 0.055	1.47 ± 0.058	1.73 ± 0.1
UniProt Q13042 and related entries	0.961 ± 0.02	0.892 ± 0.14	0.971 ± 0.058	0.942 ± 0.081	0.958 ± 0.071	0.931 ± 0.11
STX4 (UniProt Q12846)	0.989 ± 0.036	1.04 ± 0.038	1 ± 0.053	1 ± 0.023	0.984 ± 0.031	0.983 ± 0.028
GNL2 (UniProt Q13823)	1 ± 0.025	1.05 ± 0.037	1.04 ± 0.015	1.05 ± 0.025	1.04 ± 0.036	1.04 ± 0.034
PAK2 (UniProt Q13177)	1.01 ± 0.021	0.988 ± 0.0099	0.9836 ± 0.0067	0.9679 ± 0.0052	0.9826 ± 0.0029	0.967 ± 0.033
PWP1 (UniProt Q13610)	1.06 ± 0.041	1.04 ± 0.066	1.03 ± 0.039	1.03 ± 0.018	1.02 ± 0.045	1.03 ± 0.029
EXOSC2 (UniProt Q13868)	1.01 ± 0.032	0.966 ± 0.06	1.04 ± 0.045	1.11 ± 0.073	1.15 ± 0.074	1.15 ± 0.14
UniProt Q13131 and related entries	1.03 ± 0.032	1 ± 0.038	1.051 ± 0.0089	1.01 ± 0.027	1.05 ± 0.022	1.03 ± 0.026
UniProt Q14671 and related entries	1 ± 0.027	1.05 ± 0.017	1 ± 0.067	0.98 ± 0.041	0.927 ± 0.032	0.972 ± 0.053
TTLL12 (UniProt Q14166)	1.026 ± 0.0028	0.927 ± 0.14	1.01 ± 0.04	0.964 ± 0.018	1.02 ± 0.027	0.944 ± 0.034
TARDBP (UniProt Q13148)	1.01 ± 0.015	1.03 ± 0.046	0.998 ± 0.021	1.02 ± 0.018	1 ± 0.012	1.01 ± 0.029
